From PubChem BioAssay AID2417 (National Center for Advancing Translational Sciences (NCATS), 2010)
Hit rate of the full screen: of about 140,000 compounds, about 4,300 (3.1%) were called active. This list was built around the results that the source calls inconclusive (neither active nor inactive); the mix of calls is not that of the screen.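 How the source made its calls: active means readout at or below -70, meaning at least 70% loss of cells showing the perinucleolar compartment, a nuclear body marking cancer cells; inconclusive means readout between -30 and a set limit; inactive means the rest.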

Test: High Content Assay for Compounds that inhibit the Assembly of the Perinucleolar Compartment;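 further: plate controls were DMSO wells for no effect and camptothecin positive control wells for full effect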
Details: PC3M PTB-GFP, PNC prevalence imaging, 16 h; at 10 µM; stronger effect = lower value
Summary of the method: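 Compounds are pinned in duplicate onto adhered PC3M cells stably expressing GFP-tagged PTB and incubated 16 h at 37 C. Cells are then fixed, nuclei stained with Hoechst, and PNC-positive cells counted.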

| Compound | activity change (PNC), negative = inhibition |
| --- | --- |
| CC(=O)Nc1ccc(N2C(C(C)=O)=NN(c3ccc(Cl)cc3)C2c2sccc2C)cc1 (stereo not given) | inconclusive: -40.5% |
| CCOC(=O)c1cnc2c(OC)cccc2c1N1CCN(c2ccc(OC)cc2)CC1 | inconclusive: -35.5% |
| CCOCCCNC(=O)C(c1ccc(C)cc1)N(Cc1ccc2c(c1)OCO2)C(=O)CNC(C)=O (stereo not given) | active: -100% |
| S=C(NCCc1ccccc1)NC1CCCCCC1 | inconclusive: -52.2% |
| COc1cc(CCC(=O)OCC(=O)Nc2cccc(S(=O)(=O)N(C)C)c2)cc(OC)c1OC | inconclusive: -34.5% |
| CNS(=O)(=O)c1cccc(C(=O)Nc2cccc(Cl)c2)c1 | active: -93.9% |
| COc1ccc(-c2nnc3n(CCc4ccccc4)c(=O)c4ccccc4n23)c(OC)c1 | inconclusive: -34.1% |
| Cc1ccc(NC(=O)CN(c2ccc(Cl)cc2)S(=O)(=O)c2cc([N+](=O)[O-])ccc2Cl)cc1 | inconclusive: -32.9% |
| COc1ccc(Cn2c(SCc3cc(C)ccc3C)nc3cc(OC)c(OC)cc3c2=N)cc1 | active: -114% |
| CC(=O)c1c(C)[nH]c(-c2ccccc2)c1C | inconclusive: -79.1% |
| CCOC(=O)Cn1nc(-c2ccc(Cl)cc2)ccc1=O | inactive: 6.1% |
| CCOc1cc(CNc2ccccc2)cc(Br)c1OCc1ccc(F)cc1 | inconclusive: -70.3% |
| CCCCNC(=O)CCn1c(=O)c2ccccc2n(Cc2ccc(Cl)cc2)c1=O | inconclusive: -68.4% |
| Cc1cccc(C)c1NC(=O)CSc1nnc(-c2ccoc2C)n1C | inconclusive: -56% |
| CCCc1n[nH]c2c1/C(=N\O)CCC2 | inconclusive: -52.9% |
| CCc1cccc(C)c1NC(=O)C1CCCO1 (stereo not given) | inconclusive: -30.5% |
| COc1ccc2c(c1)c(CC(=O)Nc1ccc(C(C)=O)cc1)c(C)n2C(=O)c1ccc(Cl)cc1 | inactive: 36.2% |
| c1ccc(N2CCN(c3nc(NCc4ccco4)c4ccccc4n3)CC2)cc1 | inconclusive: -50.2% |
| CC(=O)c1cccc(N2C(=O)C3C4CCC(C4=C(C)C)C3C2=O)c1 (stereo not given) | inconclusive: -39.9% |
| O=C(N/N=C/c1cc(Br)ccc1O)C(=O)Nc1ccccc1OC(F)(F)C(F)F | inactive: 41.8% |
| O=C(NCc1ccco1)C1CCC(CNS(=O)(=O)c2cccc3cccnc23)CC1 (stereo not given) | inactive: -24% |
| Cc1ccc2nc(NCc3ccccc3)c(C=O)c(=O)n2c1 | inconclusive: -52.4% |
| O=C1NC2(CCc3ccccc3C2)C(=O)N1CCOc1cccc(Cl)c1 (stereo not given) | inconclusive: -60.1% |

| Compound | activity change (PNC), negative = inhibition |
| --- | --- |
| O=C(NC1CC1)c1ccc2c(c1)NC(=O)c1ccccc1S2 | inactive: 14.7% |
| CC(C)(C)n1nnc(CCc2nnn(C(C)(C)C)n2)n1 | active: -91.9% |
| C1=Nc2ccccc2CN1c1ccccc1 | inactive: 17.6% |
| COc1ccc(/C=N/NC(=O)c2ccn[nH]2)cc1COc1ccc(Cl)cc1Cl | inconclusive: -43.9% |
| O=S(=O)(NCCSc1nnnn1-c1ccccc1)c1cccs1 | inactive: -10.5% |
| CCN(CC)S(=O)(=O)c1ccc(NC(=O)C(OC)c2ccccc2)cc1 (stereo not given) | inconclusive: -32.9% |
| COC(=O)c1ccccc1NC(=O)c1ccco1 | inconclusive: -33.9% |
| COc1cc(C)c(S(=O)(=O)Nc2ccc(CC(=O)O)cc2)cc1C | inconclusive: -34.7% |
| Cc1c2c(n3c(nc4ccccc43)c1C#N)N(c1ccccc1)CC2 | active: -94.6% |
| Cc1ccc(OCCn2cc(C#N)c3ccccc32)cc1 | inconclusive: -60.1% |
| Cc1cc(C)c(S(=O)(=O)Nc2ccc(-c3cn4ccccc4n3)cc2)c(C)c1 | inconclusive: -49.6% |
| Cc1c(NS(=O)(=O)c2ccc3[nH]c(=O)[nH]c3c2)c(=O)n(-c2ccccc2)n1C | inactive: -5.99% |
| COc1ccc2c(c1OC)C(=O)OC2Nc1nc(-c2ccccc2)cs1 (stereo not given) | inconclusive: -38.7% |
| O=C(O)/C=C/C(=O)Nc1ccccc1-c1ccccc1NC(=O)/C=C/C(=O)O | inactive: 34.5% |
| CCC(C(=O)NC1CCCC1)N(Cc1cccs1)C(=O)Cn1nnc(-c2ccc(OC)c(OC)c2)n1 (stereo not given) | inconclusive: -39.9% |
| O=C(Nc1ccc(N2CCOCC2)cc1)c1cn2ccccc2n1 | inactive: 36% |
| CCCN(CCC)C(=S)Nc1cc(C(=O)OC)ccc1C(=O)OC | inactive: 27.9% |
| COc1ccccc1C/C(N)=N/OC(=O)COc1ccc(C)cc1 | inactive: 30% |
| O=C(CSc1nnc(-c2ccc(Br)cc2)o1)Nc1cccc2ccccc12 | inactive: -24.1% |
| O=C(COc1ccccc1)N1CCc2ccccc21 | active: -82% |
| Cc1ccc(-c2nc(=S)c3c(n2Cc2ccco2)CCCC3)cc1 | active: -129% |
| O=C(Nc1nccs1)c1ccc(-c2ccc(Cl)cc2Cl)o1 | inconclusive: -56.4% |
| Cc1cc(O)ccc1N/C=C1\CCCC1=O | inactive: -2.8% |

| Compound | activity change (PNC), negative = inhibition |
| --- | --- |
| Cc1cccc(NC(=O)c2ccccn2)c1C | inconclusive: -40.1% |
| CC1(C)CC(=O)c2c(n(-c3cccc4ccccc34)ccc2=O)C1 | inactive: 40.8% |
| CCOC(=O)CSc1nnc(C)n1N | inconclusive: -43.5% |
| CCOC(=O)c1c(C)n(C)c2ccc(OC)c(NC(=O)c3cccs3)c12 | inconclusive: -31.5% |
| COC(=O)c1ccc(OCC(=O)c2ccc(C)c(C)c2)cc1 | inconclusive: -78.3% |
| CCCCCc1c(C)nc(N2CCc3ccccc3C2)[nH]c1=O | active: -117% |
| Cc1cccc2sc(NC(=O)CSc3nc4ccccc4o3)nc12 | inconclusive: -61.4% |
| Cc1cccc(N2CCN(C(=O)c3ccc(CS(=O)(=O)c4ccccc4C)o3)CC2C)c1 (stereo not given) | inconclusive: -72.2% |
| CCCCSc1nnc(CCCCCNC(=O)OC(C)(C)C)o1 | inconclusive: -70.4% |
| O=C(Cn1c(=O)oc2cc(S(=O)(=O)N3CCCC3)ccc21)N1CCc2ccccc2C1 | inactive: 5.29% |
| O=C(Nc1ccon1)c1ccc(Cl)s1 | inconclusive: -30.3% |
| Cc1ccc(/C=N/NC(=O)C2CC(=O)N(c3ccccc3)C2)s1 (stereo not given) | inconclusive: -49.8% |
| CCOC(=O)C/C(C)=N/NC(=O)c1cccs1 | inconclusive: -37.9% |
| COc1ccc2cc(CN(Cc3ccco3)Cc3nnnn3C3CCCCC3)c(=O)[nH]c2c1 | inactive: 4.43% |
| COC(=O)c1ccccc1NC(=O)CSc1ccc(C)cc1 | inconclusive: -35.2% |
| CCCn1c2ccccc2c2nnc(SCC(=O)OCC)nc21 | inactive: 24.4% |
| NCCc1nnc(SCC(N)=O)o1 | inactive: 9.77% |
| Cc1ccc(C(=O)Oc2coc(CSc3nnc(NC(=O)C4CC4)s3)cc2=O)cc1C | inconclusive: -79.8% |
| Cc1cccc(NC(=O)c2cc3n(n2)C(C(F)(F)F)CC(c2ccc4c(c2)OCO4)N3)c1 (stereo not given) | inconclusive: -48.2% |
| C[C@@H](C(=O)Nc1ccc2ccccc2c1)[C@H]1C[C@]1(C)[C@H](NC(=O)c1cnccn1)c1ccccc1 | active: -91.2% |
| Nc1sc2c(c1C(=O)NC1CCS(=O)(=O)C1)CCCC2 (stereo not given) | inconclusive: -31.9% |
| O=C(Nc1ccccc1C(=O)NCc1ccccc1)c1ccccc1Br | inconclusive: -43.9% |
| O=S(=O)(c1cc(Cl)cc(Cl)c1)N1CCCC1c1nc2ccccc2s1 (stereo not given) | active: -100% |

A few values from the results shown:
O=S(=O)(NCCSc1nnnn1-c1ccccc1)c1cccs1 – activity change (PNC), negative = inhibition: inactive: -10.5%
O=C(O)/C=C/C(=O)Nc1ccccc1-c1ccccc1NC(=O)/C=C/C(=O)O – activity change (PNC), negative = inhibition: inactive: 34.5%

(listing goes on)

| Compound | activity change (PNC), negative = inhibition |
| --- | --- |
| O=C(c1ccco1)N(Cc1cc2ccccc2[nH]c1=O)C1CCCCC1 | inconclusive: -73.2% |
| COc1cc(OC)c(C2CC(=O)N3CN(c4ccc(C)cc4)CSC3=C2C#N)cc1OC (stereo not given) | inactive: 5.57% |
| COc1ccccc1N(CC(=O)N/N=C/c1ccc(SC)cc1)S(C)(=O)=O | inconclusive: -52.5% |
| c1ccc(-c2nnc(SCCC3OCCCO3)o2)cc1 | inactive: 40.6% |
| COc1cccc2cc(C(=O)NCc3ccco3)c(=Nc3ccc(C(=O)O)cc3)oc12 | inconclusive: -37.8% |
| CN(C)c1ccc(/C=C/C(O)=C2/C(=O)N(C)C3(C)CC2c2ccccc2O3)cc1 (stereo not given) | inactive: -28.7% |
| O=C1c2ccccc2C(Nc2ccc3c(c2)OCCO3)N1Cc1ccco1 (stereo not given) | inconclusive: -34.5% |
| Cc1cc(C(=O)Nc2ccc(N3CCCC3)c(Cl)c2)ccc1[N+](=O)[O-] | inactive: 4.69% |
| O=C(CN1C(=O)C2CCCN2c2ncc(Cl)cc21)NCc1ccc2c(c1)OCO2 (stereo not given) | inconclusive: -32.7% |
| Cc1ccc(OC(=O)C23CC4CC(CC(C4)C2)C3)c(C)n1 | inactive: 65.8% |
| Cc1c(NS(=O)(=O)c2ccc(N3CCCCC3)c([N+](=O)[O-])c2)c(=O)n(-c2ccccc2)n1C | inactive: 14.4% |
| CCOC(=O)C(NC(C)=O)(N1CCc2ccccc2C1)C(F)(F)F (stereo not given) | inactive: 21.7% |
| CCOc1ccc(N2C(=O)CC(N3CCN(C(=O)c4ccco4)CC3)C2=O)cc1 (stereo not given) | inconclusive: -44.7% |
| CCn1c(SCC(=O)Nc2ccc(OC)c(OC)c2)nnc1-c1cccs1 | inconclusive: -48.3% |
| Cc1ccccc1OCCSc1nc(N(C)C)nc(N(C)C)n1 | inconclusive: -40.3% |
| COc1ccc(OCC(=O)Nc2cc(-c3nn(C)c(=O)c4ccccc34)ccc2OC)cc1 | inactive: 8.66% |
| Cc1ccc(NC(=O)CN(c2ccc3c(c2)OCO3)S(=O)(=O)c2c(C)n[nH]c2C)cc1 | inconclusive: -45% |
| CC1Cc2ccccc2N1C(=O)CSc1nnc(-c2ccc(S(=O)(=O)N3CCOCC3)cc2)n1C (stereo not given) | inactive: 20% |
| O=C(/C=C/Nc1ccccc1OC(F)(F)F)C(F)(F)F | inconclusive: -54.4% |
| CCCCc1c(C)c(C#N)c2nc3ccccc3n2c1Cl | inconclusive: -55.6% |
| COCCCn1c(SCc2nnc(-c3ccc(OC)c(OC)c3)o2)nc2ccccc2c1=O | active: -100% |
